Test results as given in the supplement of paper PMC8728848.
The other results are listed elsewhere or left out.

Assays:
Experiment in all cases: glycan array binding signal (z-score within array); higher = stronger binding
Settings in all cases: glycan notation: IUPAC condensed, linker removed
[1] = target: Fuc(a1-2)Gal
Method in brief: (§1)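 From the Consortium for Functional Glycomics database, 3228 arrays were curated, keeping only those whose protein sequence was available. Binding is given as a within-array Z-score averaged across arrays sharing a protein sequence and across linkers. Negative Z-scores can be read as non-binding.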

[2] = target: Fuc(a1-2)Gal(b1-3)GalNAc
Method in brief: as §1

[3] = target: Fuc(a1-2)Gal(b1-3)GalNAc(a1-3)[Fuc(a1-2)]Gal(b1-4)Glc
Method in brief: as §1

[4] = target: Fuc(a1-2)Gal(b1-3)GalNAc(a1-3)[Fuc(a1-2)]Gal(b1-4)GlcNAc
Method in brief: as §1

[5] = target: Fuc(a1-2)Gal(b1-3)GalNAc(b1-3)Gal
Method in brief: as §1

[6] = target: Fuc(a1-2)Gal(b1-3)GalNAc(b1-3)Gal(a1-4)Gal(b1-4)Glc
Method in brief: as §1

[7] = target: Fuc(a1-2)Gal(b1-3)GalNAc(b1-4)[Neu5Ac(a2-3)]Gal(b1-4)Glc
Method in brief: as §1

[8] = target: Fuc(a1-2)Gal(b1-3)GlcNAc
Method in brief: as §1

[9] = target: Fuc(a1-2)Gal(b1-3)GlcNAc(b1-2)Man(a1-3)[Fuc(a1-2)Gal(b1-3)GlcNAc(b1-2)Man(a1-6)]Man(b1-4)GlcNAc(b1-4)GlcNAc
Method in brief: as §1

[10] = target: Fuc(a1-2)Gal(b1-3)GlcNAc(b1-2)Man(a1-3)[Fuc(a1-2)Gal(b1-3)GlcNAc(b1-2)Man(a1-6)]Man(b1-4)GlcNAc(b1-4)[Fuc(a1-6)]GlcNAc
Method in brief: as §1

[11] = target: Fuc(a1-2)Gal(b1-3)GlcNAc(b1-3)Gal(b1-4)Glc
Method in brief: as §1

[12] = target: Fuc(a1-2)Gal(b1-3)GlcNAc(b1-3)GalNAc
Method in brief: as §1

[13] = target: Fuc(a1-2)Gal(b1-3)GlcNAc(b1-3)[Fuc(a1-2)Gal(b1-3)GlcNAc(b1-6)]GalNAc
Method in brief: as §1

[14] = target: Fuc(a1-2)Gal(b1-3)GlcNAc(b1-3)[Gal(b1-4)GlcNAc(b1-6)]Gal(b1-4)Glc
Method in brief: as §1

[15] = target: Fuc(a1-2)Gal(b1-3)GlcNAc(b1-3)[Neu5Ac(a2-6)Gal(b1-4)GlcNAc(b1-6)]Gal(b1-4)Glc
Method in brief: as §1

[16] = target: Fuc(a1-2)Gal(b1-3)GlcNAc6S
Method in brief: as §1

[17] = target: Fuc(a1-2)Gal(b1-3)[Fuc(a1-4)]GlcNAc
Method in brief: as §1

[18] = target: Fuc(a1-2)Gal(b1-3)[Fuc(a1-4)]GlcNAc(b1-2)Man(a1-3)[Fuc(a1-2)Gal(b1-3)[Fuc(a1-4)]GlcNAc(b1-2)Man(a1-3)]Man(b1-4)GlcNAc(b1-4)GlcNAc
Method in brief: as §1

[19] = target: Fuc(a1-2)Gal(b1-3)[Fuc(a1-4)]GlcNAc(b1-2)Man(a1-3)[Fuc(a1-2)Gal(b1-3)[Fuc(a1-4)]GlcNAc(b1-2)Man(a1-6)]Man(b1-4)GlcNAc(b1-4)[Fuc(a1-6)]GlcNAc(b1-4)[Fuc(a1-6)]GlcNAc
Method in brief: as §1

[20] = target: Fuc(a1-2)Gal(b1-3)[Fuc(a1-4)]GlcNAc(b1-3)[Fuc(a1-3)[Gal(b1-4)]GlcNAc(b1-6)]Gal(b1-4)Glc
Method in brief: as §1

[21] = target: Fuc(a1-2)Gal(b1-3)[Fuc(a1-4)]GlcNAc(b1-3)[Gal(b1-4)GlcNAc(b1-6)]Gal(b1-4)Glc
Method in brief: as §1

[22] = target: Fuc(a1-2)Gal(b1-4)Fuc(a1-3)]GlcNAc(b1-2)Man(a1-3)[Fuc(a1-2)Gal(b1-4)[Fuc(a1-3)]GlcNAc(b1-2)Man(a1-6)]Man(b1-4)GlcNAc(b1-4)GlcNAc
Method in brief: as §1

[23] = target: Fuc(a1-2)Gal(b1-4)Glc
Method in brief: as §1

[24] = target: Fuc(a1-2)Gal(b1-4)Glc6S
Method in brief: as §1

[25] = target: Fuc(a1-2)Gal(b1-4)GlcNAc
Method in brief: as §1

[26] = target: Fuc(a1-2)Gal(b1-4)GlcNAc(b1-2)Man
Method in brief: as §1

[27] = target: Fuc(a1-2)Gal(b1-4)GlcNAc(b1-2)Man(a1-3)[Fuc(a1-2)Gal(b1-4)GlcNAc(b1-2)Man(a1-6)]Man(b1-4)GlcNAc(b1-4)GlcNAc
Method in brief: as §1

[28] = target: Fuc(a1-2)Gal(b1-4)GlcNAc(b1-2)Man(a1-3)[Fuc(a1-2)Gal(b1-4)GlcNAc(b1-2)Man(a1-6)]Man(b1-4)GlcNAc(b1-4)[Fuc(a1-6)]GlcNAc
Method in brief: as §1

[29] = target: Fuc(a1-2)Gal(b1-4)GlcNAc(b1-2)[Fuc(a1-2)Gal(b1-4)GlcNAc(b1-4)]Man(a1-3)[Fuc(a1-2)Gal(b1-4)GlcNAc(b1-2)Man(a1-6)]Man(b1-4)GlcNAc(b1-4)GlcNAc
Method in brief: as §1

[30] = target: Fuc(a1-2)Gal(b1-4)GlcNAc(b1-3)Gal(b1-4)GlcNAc
Method in brief: as §1

[31] = target: Fuc(a1-2)Gal(b1-4)GlcNAc(b1-3)Gal(b1-4)GlcNAc(b1-2)Man(a1-3)[Fuc(a1-2)Gal(b1-4)GlcNAc(b1-3)Gal(b1-4)GlcNAc(b1-2)Man(a1-6)]Man(b1-4)GlcNAc(b1-4)GlcNAc
Method in brief: as §1

[32] = target: Fuc(a1-2)Gal(b1-4)GlcNAc(b1-3)Gal(b1-4)GlcNAc(b1-3)Gal(b1-4)GlcNAc
Method in brief: as §1

[33] = target: Fuc(a1-2)Gal(b1-4)GlcNAc(b1-3)GalNAc
Method in brief: as §1

[34] = target: Fuc(a1-2)Gal(b1-4)GlcNAc(b1-3)[Fuc(a1-2)Gal(b1-4)GlcNAc(b1-6)]GalNAc
Method in brief: as §1

[35] = target: Fuc(a1-2)Gal(b1-4)GlcNAc(b1-3)[Fuc(a1-3)[Gal(b1-4)]GlcNAc(b1-6)]Gal(b1-4)Glc
Method in brief: as §1

[36] = target: Fuc(a1-2)Gal(b1-4)GlcNAc(b1-6)GalNAc
Method in brief: as §1

[37] = target: Fuc(a1-2)Gal(b1-4)GlcNAc6S
Method in brief: as §1

[38] = target: Fuc(a1-2)Gal(b1-4)[Fuc(a1-3)]GlcNAc
Method in brief: as §1

[39] = target: Fuc(a1-2)Gal(b1-4)[Fuc(a1-3)]GlcNAc(b1-2)Man(a1-3)[Fuc(a1-2)Gal(b1-4)[Fuc(a1-3)]GlcNAc(b1-2)Man(a1-6)]Man(b1-4)GlcNAc(b1-4)[Fuc(a1-6)]GlcNAc
Method in brief: as §1

[40] = target: Fuc(a1-2)Gal(b1-4)[Fuc(a1-3)]GlcNAc(b1-2)[Fuc(a1-2)Gal(b1-4)[Fuc(a1-3)]GlcNAc(b1-4)]Man(a1-3)[Fuc(a1-2)Gal(b1-4)[Fuc(a1-3)]GlcNAc(b1-2)Man(a1-6)]Man(b1-4)GlcNAc(b1-4)GlcNAc
Method in brief: as §1

[41] = target: Fuc(a1-2)Gal(b1-4)[Fuc(a1-3)]GlcNAc(b1-3)Gal(b1-4)[Fuc(a1-3)]GlcNAc
Method in brief: as §1

[42] = target: Fuc(a1-2)Gal(b1-4)[Fuc(a1-3)]GlcNAc(b1-3)Gal(b1-4)[Fuc(a1-3)]GlcNAc(b1-3)Gal(b1-4)[Fuc(a1-3)]GlcNAc
Method in brief: as §1

[43] = target: Fuc(a1-2)Gal(b1-4)[Fuc(a1-3)]GlcNAc(b1-3)GalNAc
Method in brief: as §1

[44] = target: Fuc(a1-2)Gal(b1-4)[Fuc(a1-3)]GlcNAc(b1-3)[Neu5Ac(a2-6)Gal(b1-4)GlcNAc(b1-6)]Gal(b1-4)Glc
Method in brief: as §1

[45] = target: Fuc(a1-2)Gal3S(b1-4)GlcNAc
Method in brief: as §1

B1: Tp0751, 83732 (protein)
chain: MSYYHHHHHHLESTSLYKKAGFQHGHVPPRRIPPHDTFGALPTAALPSNARDTAAHPSDTADNTSGSSTTTDPRSHGNAPPAPVGGAAQTHTQPPVQTAMRIALWNRATHGEQGALQHLLAGLWIQTEISPNSGDIHPLLFFDREHAEITFSRASVQEIFLVDSAHTHRKTVSFLTRNTAISSIRRRLEVTFESHEVIHVRAVEDVARLKIGSTSMWDGQYTRYHAGPASAPSP
[1]
  glycan array binding signal (z-score): -0.265
[2]
  glycan array binding signal (z-score): -0.473
[3]
  glycan array binding signal (z-score): -0.469
[4]
  glycan array binding signal (z-score): -0.085
[5]
  glycan array binding signal (z-score): 0.841
[6]
  glycan array binding signal (z-score): -0.023
[7]
  glycan array binding signal (z-score): 0.023
[8]
  glycan array binding signal (z-score): -0.361
[9]
  glycan array binding signal (z-score): -0.259
[10]
  glycan array binding signal (z-score): -0.149
[11]
  glycan array binding signal (z-score): -0.349
[12]
  glycan array binding signal (z-score): -0.189
[13]
  glycan array binding signal (z-score): -0.266
[14]
  glycan array binding signal (z-score): -0.289
[15]
  glycan array binding signal (z-score): -0.484
[16]
  glycan array binding signal (z-score): 0.951
[17]
  glycan array binding signal (z-score): -0.067
[18]
  glycan array binding signal (z-score): 0.093
[19]
  glycan array binding signal (z-score): -0.103
[20]
  glycan array binding signal (z-score): -0.049
[21]
  glycan array binding signal (z-score): -0.218
[22]
  glycan array binding signal (z-score): 0.856
[23]
  glycan array binding signal (z-score): 0.269
[24]
  glycan array binding signal (z-score): -0.309
[25]
  glycan array binding signal (z-score): -0.115
[26]
  glycan array binding signal (z-score): 0.088
[27]
  glycan array binding signal (z-score): -0.572
[28]
  glycan array binding signal (z-score): 1.64
[29]
  glycan array binding signal (z-score): -0.339
[30]
  glycan array binding signal (z-score): -0.218
[31]
  glycan array binding signal (z-score): 1.32
[32]
  glycan array binding signal (z-score): 0.072
[33]
  glycan array binding signal (z-score): -0.474
[34]
  glycan array binding signal (z-score): 0.326
[35]
  glycan array binding signal (z-score): -0.376
[36]
  glycan array binding signal (z-score): -0.071
[37]
  glycan array binding signal (z-score): -0.549
[38]
  glycan array binding signal (z-score): 0.263
[39]
  glycan array binding signal (z-score): 0.919
[40]
  glycan array binding signal (z-score): -0.059
[41]
  glycan array binding signal (z-score): -0.214
[42]
  glycan array binding signal (z-score): 0.013
[43]
  glycan array binding signal (z-score): 0.182
[44]
  glycan array binding signal (z-score): -0.367
[45]
  glycan array binding signal (z-score): -0.72
